Test results: patent US20090035818A1
These are yes or no findings as the source states them, for the method shown. Some binding calls cover weakened binding; strength is not graded here.

Chains of the proteins cited; added tags and fusions are not shown. Residues count along the entry.
UniProt P01267, residues 20-2769: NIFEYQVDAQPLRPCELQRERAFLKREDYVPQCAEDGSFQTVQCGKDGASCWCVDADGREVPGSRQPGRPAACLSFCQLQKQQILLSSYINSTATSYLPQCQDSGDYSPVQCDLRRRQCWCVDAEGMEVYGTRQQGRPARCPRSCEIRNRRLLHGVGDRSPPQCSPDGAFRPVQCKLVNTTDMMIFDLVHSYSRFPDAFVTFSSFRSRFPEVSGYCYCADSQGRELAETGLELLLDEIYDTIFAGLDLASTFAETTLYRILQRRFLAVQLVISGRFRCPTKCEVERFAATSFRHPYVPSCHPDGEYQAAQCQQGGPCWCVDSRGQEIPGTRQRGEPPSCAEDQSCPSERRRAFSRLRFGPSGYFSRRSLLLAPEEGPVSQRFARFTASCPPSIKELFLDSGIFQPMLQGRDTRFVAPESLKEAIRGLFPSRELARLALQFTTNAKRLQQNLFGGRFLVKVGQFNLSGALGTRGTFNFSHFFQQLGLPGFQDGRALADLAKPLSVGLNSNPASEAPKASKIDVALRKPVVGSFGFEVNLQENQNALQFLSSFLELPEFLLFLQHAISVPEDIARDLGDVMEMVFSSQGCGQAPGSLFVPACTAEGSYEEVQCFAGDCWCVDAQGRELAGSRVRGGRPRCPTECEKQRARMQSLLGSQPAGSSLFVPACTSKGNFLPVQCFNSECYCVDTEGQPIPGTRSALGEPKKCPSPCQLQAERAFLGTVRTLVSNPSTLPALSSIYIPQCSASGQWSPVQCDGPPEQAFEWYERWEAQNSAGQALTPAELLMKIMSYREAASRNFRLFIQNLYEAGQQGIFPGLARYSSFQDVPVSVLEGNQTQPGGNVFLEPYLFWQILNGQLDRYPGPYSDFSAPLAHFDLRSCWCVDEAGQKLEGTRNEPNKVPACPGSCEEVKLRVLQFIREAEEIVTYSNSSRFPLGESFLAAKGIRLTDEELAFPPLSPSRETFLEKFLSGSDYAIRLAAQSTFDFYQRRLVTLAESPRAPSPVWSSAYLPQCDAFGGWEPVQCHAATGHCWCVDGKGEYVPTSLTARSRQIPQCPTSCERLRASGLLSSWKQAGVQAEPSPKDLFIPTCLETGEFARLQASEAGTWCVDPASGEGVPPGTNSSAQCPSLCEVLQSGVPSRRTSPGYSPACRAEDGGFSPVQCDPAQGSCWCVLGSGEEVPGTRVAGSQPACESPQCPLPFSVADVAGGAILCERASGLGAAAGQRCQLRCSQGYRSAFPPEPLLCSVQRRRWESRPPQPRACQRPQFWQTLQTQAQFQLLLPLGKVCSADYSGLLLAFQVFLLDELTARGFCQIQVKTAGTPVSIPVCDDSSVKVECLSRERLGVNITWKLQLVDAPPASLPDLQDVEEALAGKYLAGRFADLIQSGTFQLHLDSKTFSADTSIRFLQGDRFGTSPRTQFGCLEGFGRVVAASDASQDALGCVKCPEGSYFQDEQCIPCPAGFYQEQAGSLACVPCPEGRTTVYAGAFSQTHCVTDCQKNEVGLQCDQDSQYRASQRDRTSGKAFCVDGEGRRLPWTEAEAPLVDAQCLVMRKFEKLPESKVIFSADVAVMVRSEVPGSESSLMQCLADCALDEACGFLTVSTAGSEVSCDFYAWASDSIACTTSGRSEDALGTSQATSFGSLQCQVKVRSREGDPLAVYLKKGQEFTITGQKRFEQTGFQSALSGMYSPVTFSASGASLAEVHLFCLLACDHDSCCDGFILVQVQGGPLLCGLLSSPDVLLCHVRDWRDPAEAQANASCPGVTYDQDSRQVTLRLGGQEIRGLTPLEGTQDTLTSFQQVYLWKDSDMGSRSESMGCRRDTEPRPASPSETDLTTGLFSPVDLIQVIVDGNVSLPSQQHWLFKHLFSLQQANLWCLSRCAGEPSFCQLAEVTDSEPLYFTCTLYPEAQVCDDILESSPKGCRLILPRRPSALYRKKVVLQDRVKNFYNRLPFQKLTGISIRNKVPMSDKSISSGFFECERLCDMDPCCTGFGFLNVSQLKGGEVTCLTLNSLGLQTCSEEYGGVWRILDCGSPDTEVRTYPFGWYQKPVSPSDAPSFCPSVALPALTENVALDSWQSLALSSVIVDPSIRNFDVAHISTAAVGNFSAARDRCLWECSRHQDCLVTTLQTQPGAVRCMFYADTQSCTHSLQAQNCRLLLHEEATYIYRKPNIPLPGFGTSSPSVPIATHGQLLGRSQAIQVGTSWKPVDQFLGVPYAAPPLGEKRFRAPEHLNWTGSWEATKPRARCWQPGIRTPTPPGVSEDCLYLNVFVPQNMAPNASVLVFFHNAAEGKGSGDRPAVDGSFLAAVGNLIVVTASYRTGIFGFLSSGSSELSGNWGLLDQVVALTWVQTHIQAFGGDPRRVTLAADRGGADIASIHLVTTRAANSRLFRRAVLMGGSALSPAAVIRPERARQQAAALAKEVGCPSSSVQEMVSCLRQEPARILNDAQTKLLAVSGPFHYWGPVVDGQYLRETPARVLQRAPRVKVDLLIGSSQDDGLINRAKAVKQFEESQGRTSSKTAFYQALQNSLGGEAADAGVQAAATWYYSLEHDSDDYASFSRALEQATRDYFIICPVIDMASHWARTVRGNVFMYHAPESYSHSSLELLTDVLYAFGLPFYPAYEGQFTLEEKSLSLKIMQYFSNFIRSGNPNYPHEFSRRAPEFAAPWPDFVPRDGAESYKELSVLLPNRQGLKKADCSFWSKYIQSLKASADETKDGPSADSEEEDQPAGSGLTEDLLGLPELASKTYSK

Assays:
[1] = target: bovine tyroglobulin (cattle) (UniProt P01267); assay: SPR, bovine tyroglobulin on CM5 chip, lectin as analyte
[2] = target: bovine tyroglobulin (cattle) (UniProt P01267); assay: SPR, bovine tyroglobulin (12,095 RU) on CM5 chip, lectin 100 µg/ml, elution with 0.5 M D-mannose
[3] = target: bovine tyroglobulin (cattle) (UniProt P01267); assay: SPR (Biacore), bovine tyroglobulin immobilised on CM5 chip (12,095 RU), lectin 100 µg/ml in HBS-EP at 5 µl/min
[4] = target: bovine tyroglobulin (cattle) (UniProt P01267); assay: SPR (Biacore), residual lectin on bovine tyroglobulin chip after HBS-EP wash and after 0.5 M D-mannose, relative to amount bound (100 %)

Measured: binding

B1: BML-17 (protein)
chain: VIYQDPVTSDMFAKIPMPGHRGPWYVCHSSGDWSRNEPVFGRCAIDAKGMVEAYFPYGGKDIKWPSRWSAVITTGVYWGKYNDWKQADCNGGQQVVDGGRGAVTVRMDGISECKGWTTGKSSHNEVWFGCNGKEVGSWISDTPASDVFPICQEYGAAVKIVHMGRAFN
binds: all assays above
